# Measurements reported in PubChem BioAssay AID1159578 (Peter MacCallum Cancer Centre, 2015).
# Assay: 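Knock-downs that alter how fast lymphatic endothelial cells migrate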 (primary screen)
# Cell system: human lymphatic endothelial cells
# Reagents: siRNA pool against human genes, 40 nM
# Timing: 48 h after transfection
# Read-out: 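Cells stained with dye and imaged after a scratch; covered wound area and nuclei counted, duplicates averaged, migration set against mock wells and turned into a robust z-score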
# Scale: migration robust z-score: higher = faster migration into the scratch; migration relative to mock: higher = more scratch area covered than mock; nuclei per well: higher = more cells in the well
# Active means: 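Migration changed when robust z exceeds 2 or falls below -2 and mean nuclei number is at least 3300; otherwise not called changed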
# Calls: active = migration changed; inactive = no migration change, or too few cells
# The deposit covers about 18,000 reagents; below is an unselected part. About 1,030 of all reagents (5.7%) count as active. 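Inactive calls also include pools with fewer than 3300 nuclei, whose migration was not assessed.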 Raw values are not corrected between plates. A number with no mark means an inactive call.
migration robust z-score,migration class with cell-count check,migration relative to mock,"nuclei per well, duplicate mean",Target gene
3.65 (active),migration z above 2; enough cells,1.83,5846,CMC1 (GeneID 152100)
0.13,migration z between -2 and 2; enough cells,0.83,4596,PRKCA (GeneID 5578)
-0.94,migration z between -2 and 2; enough cells,0.62,4579,DTX3 (GeneID 196403)
-2.31 (active),migration z below -2; enough cells,0.36,3861,ROBO1 (GeneID 6091)
-0.33,migration z between -2 and 2; enough cells,0.8,5930,CXCL2 (GeneID 2920)
1.4,migration z between -2 and 2; enough cells,1.25,6202,OR6C70 (GeneID 390327)
-0.84,migration z between -2 and 2; enough cells,0.66,6018,PRR14L (GeneID 253143)
-0.42,migration z between -2 and 2; enough cells,0.73,5344,IL36RN (GeneID 26525)
-0.08,migration z between -2 and 2; enough cells,0.79,5400,PSMB10 (GeneID 5699)
-1.22,migration z between -2 and 2; enough cells,0.57,5634,HADH (GeneID 3033)
0.62,migration z between -2 and 2; enough cells,1.05,5202,SYP (GeneID 6855)
-0.37,migration z between -2 and 2; enough cells,0.79,5316,LGI1 (GeneID 9211)
0.04,migration z between -2 and 2; enough cells,0.9,6322,SPAG16 (GeneID 79582)
-0.83,migration z between -2 and 2; enough cells,0.64,4556,SPCS1 (GeneID 28972)
-0.81,migration z between -2 and 2; enough cells,0.68,5409,STMN1 (GeneID 3925)
-0.8,migration z between -2 and 2; enough cells,0.65,5670,AVPR2 (GeneID 554)
0.78,migration z between -2 and 2; enough cells,1.08,5658,PPP1R9B (GeneID 84687)
0.47,migration z between -2 and 2; enough cells,1.01,5916,ATG16L1 (GeneID 55054)
-1.9,migration z between -2 and 2; enough cells,0.4,3792,GPC6 (GeneID 10082)
-0.29,migration z between -2 and 2; enough cells,0.75,5105,SLC5A7 (GeneID 60482)
3.06 (active),migration z above 2; enough cells,1.68,6798,KRT6B (GeneID 3854)
1.57,migration z between -2 and 2; enough cells,1.29,6484,CARS2 (GeneID 79587)
-0.62,migration z between -2 and 2; enough cells,0.72,5285,OR2V2 (GeneID 285659)
-0.08,migration z between -2 and 2; enough cells,0.86,6184,CIB4 (GeneID 130106)
0.1,migration z between -2 and 2; enough cells,0.82,6008,PDHA1 (GeneID 5160)
-2.78,under 3300 nuclei; migration not judged,0.17,1991,NREP (GeneID 9315)
0.02,migration z between -2 and 2; enough cells,0.89,6120,COX11 (GeneID 1353)
1.28,migration z between -2 and 2; enough cells,1.22,5447,IL18BP (GeneID 10068)
-3.13 (active),migration z below -2; enough cells,0.08,4032,RMDN1 (GeneID 51115)
0.65,migration z between -2 and 2; enough cells,0.93,7216,ULK3 (GeneID 25989)
-0.54,migration z between -2 and 2; enough cells,0.7,4462,IL9 (GeneID 3578)
0.42,migration z between -2 and 2; enough cells,0.99,5690,ZNF548 (GeneID 147694)
0.16,migration z between -2 and 2; enough cells,0.92,5964,SPTSSB (GeneID 165679)
-0.02,migration z between -2 and 2; enough cells,0.88,5930,FCRLB (GeneID 127943)
0.12,migration z between -2 and 2; enough cells,0.92,5959,COL17A1 (GeneID 1308)
2.93 (active),migration z above 2; enough cells,1.64,7290,NFATC2IP (GeneID 84901)
1.04,migration z between -2 and 2; enough cells,1,5599,LEPR (GeneID 3953)
-0.08,migration z between -2 and 2; enough cells,0.86,5799,LRRN3 (GeneID 54674)
-0.48,migration z between -2 and 2; enough cells,0.76,5830,RGS20 (GeneID 8601)
-1,migration z between -2 and 2; enough cells,0.62,4860,TIMM44 (GeneID 10469)
-0.62,migration z between -2 and 2; enough cells,0.72,4829,STMN3 (GeneID 50861)
1.18,migration z between -2 and 2; enough cells,1.19,5452,NSRP1 (GeneID 84081)
0.21,migration z between -2 and 2; enough cells,0.94,6730,INTS7 (GeneID 25896)
0.31,migration z between -2 and 2; enough cells,0.86,6170,RHOQ (GeneID 23433)
-0.42,migration z between -2 and 2; enough cells,0.72,5119,SMS (GeneID 6611)
-2.42 (active),migration z below -2; enough cells,0.34,4216,ATM (GeneID 472)
0.99,migration z between -2 and 2; enough cells,1,6936,RAB20 (GeneID 55647)
-0.1,migration z between -2 and 2; enough cells,0.86,5119,CCNI (GeneID 10983)
-2.15 (active),migration z below -2; enough cells,0.32,4452,OR14A16 (GeneID 284532)
1.43,migration z between -2 and 2; enough cells,1.26,5881,MRPL34 (GeneID 64981)
-1.56,migration z between -2 and 2; enough cells,0.48,4125,PAQR3 (GeneID 152559)
0.38,migration z between -2 and 2; enough cells,0.88,5640,COL25A1 (GeneID 84570)
0.64,migration z between -2 and 2; enough cells,1.05,6010,KATNB1 (GeneID 10300)
0.6,migration z between -2 and 2; enough cells,0.92,7012,ATP10A (GeneID 57194)
0,migration z between -2 and 2; enough cells,0.8,6310,GPRC5B (GeneID 51704)
-1.38,migration z between -2 and 2; enough cells,0.54,4731,EIF4G2 (GeneID 1982)
0.1,migration z between -2 and 2; enough cells,0.82,5060,BAD (GeneID 572)

Copied from the list:
Entry of CCNI (GeneID 10983) under “nuclei per well, duplicate mean”: 5119
Value of ATM (GeneID 472) in “migration robust z-score”: -2.42 (active)
Under “migration robust z-score”, RMDN1 (GeneID 51115) reads -3.13 (active)
SPCS1 (GeneID 28972), nuclei per well, duplicate mean → 4556
LRRN3 (GeneID 54674), migration class with cell-count check = migration z between -2 and 2; enough cells
Entry for GPRC5B (GeneID 51704) in “nuclei per well, duplicate mean”: 6310
